According to patent publication US11041000B2 (priority 2019, dated 2021):

Experiment: general procedure: Fmoc solid-phase peptide synthesis; Rink Amide MBHA resin (100-200 mesh, 0.57 or 0.66 mmol/g) for C-terminal amides; pre-loaded Wang resin for C-terminal ac; HBTU/DIEA (PyAOP/DIEA for some couplings); Oxyma/DIC
Conditions: whole synthesis, Analytical RP-HPLC (Gemini C18)

Ac-[Pen]-NT-[W(7-Me)]-[Lys(Ac)]-[Pen]-Phe[4-(2-aminoethoxy)]-[2-Nal]-[a-MeLys]-[Lys(Ac)]-N-[(D)Leu]-NH2
final HPLC purity (acetate): 97%

Ac-[Pen]-NT-[W(7-Me)]-[Lys(Ac)]-[Pen]-Phe[4-(2-aminoethoxy)]-[2-Nal]-[a-MeLys]-[Lys(Ac)]-N-[(D)Lys]-NH2
final HPLC purity (acetate salt): 97%

Ac-[Pen]-NT-[W(7-Me)]-[Lys(Ac)]-[Pen]-Phe[4-(2-aminoethoxy)]-[2-Nal]-[a-MeLys]-[Lys(Ac)]-N—H—NH2
final HPLC purity (acetate): >97%

Ac-[Per]-NT-[W(7-Me)]-[Cit]-[Per]-Phe[4-(2-aminoethoxy)]-[2-Nal]-[a-MeLys]-[Lys(Ac)]-[N-MeAla]-NH2
final HPLC purity (acetate): >97%
